Data as given in the supplement of paper PMC12819154, “High-throughput peptide-centric local stability assay extends protein–ligand identification to membrane proteins, tissues and bacteria” (Nature Structural & Molecular Biology, 2025).
The other results are listed elsewhere or left out. Most entries show no effect beyond the scatter of the controls.

Amino acid sequences for entries named in this document (tags omitted). A change or cut given only in a name is not applied to a line headed by its entry.
UniProt E9PV87: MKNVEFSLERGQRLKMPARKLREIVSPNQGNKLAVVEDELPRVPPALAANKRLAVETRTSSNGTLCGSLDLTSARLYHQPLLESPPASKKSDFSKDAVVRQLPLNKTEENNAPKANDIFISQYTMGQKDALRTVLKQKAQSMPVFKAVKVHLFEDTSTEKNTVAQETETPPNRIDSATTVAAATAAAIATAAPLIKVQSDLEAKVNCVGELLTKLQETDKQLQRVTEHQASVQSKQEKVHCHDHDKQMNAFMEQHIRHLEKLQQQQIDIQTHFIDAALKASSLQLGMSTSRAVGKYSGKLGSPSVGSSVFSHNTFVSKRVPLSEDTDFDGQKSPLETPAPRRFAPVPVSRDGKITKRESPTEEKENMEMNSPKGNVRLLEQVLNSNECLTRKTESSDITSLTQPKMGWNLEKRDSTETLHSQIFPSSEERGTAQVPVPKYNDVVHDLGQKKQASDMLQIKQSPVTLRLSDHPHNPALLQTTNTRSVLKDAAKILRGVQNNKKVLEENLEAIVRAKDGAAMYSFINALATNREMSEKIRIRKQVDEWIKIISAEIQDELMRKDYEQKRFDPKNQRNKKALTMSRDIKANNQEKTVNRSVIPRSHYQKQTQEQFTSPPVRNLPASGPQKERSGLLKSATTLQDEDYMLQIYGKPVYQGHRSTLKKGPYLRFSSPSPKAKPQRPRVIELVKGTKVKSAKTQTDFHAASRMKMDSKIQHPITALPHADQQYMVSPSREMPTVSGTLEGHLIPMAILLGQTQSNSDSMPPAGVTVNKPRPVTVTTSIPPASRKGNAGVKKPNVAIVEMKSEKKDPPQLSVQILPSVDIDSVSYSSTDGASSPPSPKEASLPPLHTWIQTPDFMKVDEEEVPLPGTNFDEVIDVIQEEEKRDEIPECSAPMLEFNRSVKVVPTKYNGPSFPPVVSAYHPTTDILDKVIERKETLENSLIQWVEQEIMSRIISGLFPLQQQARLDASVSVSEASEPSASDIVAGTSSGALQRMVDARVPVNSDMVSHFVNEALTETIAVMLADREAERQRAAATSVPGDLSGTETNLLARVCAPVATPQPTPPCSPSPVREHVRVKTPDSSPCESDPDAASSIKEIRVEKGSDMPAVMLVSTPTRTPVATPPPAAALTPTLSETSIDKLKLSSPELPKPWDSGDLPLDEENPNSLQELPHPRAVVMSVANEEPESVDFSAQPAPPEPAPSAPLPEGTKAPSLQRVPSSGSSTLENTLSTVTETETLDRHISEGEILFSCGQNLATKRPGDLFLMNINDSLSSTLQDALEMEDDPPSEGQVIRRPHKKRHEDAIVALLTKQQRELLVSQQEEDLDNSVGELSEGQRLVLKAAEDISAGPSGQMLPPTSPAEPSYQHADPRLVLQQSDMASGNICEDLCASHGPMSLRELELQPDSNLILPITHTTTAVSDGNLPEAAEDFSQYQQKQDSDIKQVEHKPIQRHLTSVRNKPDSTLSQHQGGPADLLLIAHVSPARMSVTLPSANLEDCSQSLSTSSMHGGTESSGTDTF
UniProt O09044: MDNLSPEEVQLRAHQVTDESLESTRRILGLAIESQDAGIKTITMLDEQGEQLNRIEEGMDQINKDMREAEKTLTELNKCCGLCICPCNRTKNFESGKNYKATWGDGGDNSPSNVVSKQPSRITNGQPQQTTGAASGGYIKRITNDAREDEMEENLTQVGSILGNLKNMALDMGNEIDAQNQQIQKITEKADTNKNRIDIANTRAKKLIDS
UniProt G3XA57, whole entry: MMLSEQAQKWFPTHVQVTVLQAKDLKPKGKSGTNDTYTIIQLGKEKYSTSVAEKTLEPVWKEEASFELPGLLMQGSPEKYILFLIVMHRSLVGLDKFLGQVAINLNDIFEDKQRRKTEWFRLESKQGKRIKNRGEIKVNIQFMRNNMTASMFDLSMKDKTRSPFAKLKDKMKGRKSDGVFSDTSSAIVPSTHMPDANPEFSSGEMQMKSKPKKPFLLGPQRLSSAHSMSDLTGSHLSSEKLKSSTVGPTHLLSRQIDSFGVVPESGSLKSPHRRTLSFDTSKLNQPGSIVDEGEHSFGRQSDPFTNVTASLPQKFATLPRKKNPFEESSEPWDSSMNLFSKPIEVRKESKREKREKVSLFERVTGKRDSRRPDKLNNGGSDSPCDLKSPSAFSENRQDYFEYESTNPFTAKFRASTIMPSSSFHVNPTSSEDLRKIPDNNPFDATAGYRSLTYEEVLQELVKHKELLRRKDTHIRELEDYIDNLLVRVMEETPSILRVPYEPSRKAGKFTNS
UniProt O35166: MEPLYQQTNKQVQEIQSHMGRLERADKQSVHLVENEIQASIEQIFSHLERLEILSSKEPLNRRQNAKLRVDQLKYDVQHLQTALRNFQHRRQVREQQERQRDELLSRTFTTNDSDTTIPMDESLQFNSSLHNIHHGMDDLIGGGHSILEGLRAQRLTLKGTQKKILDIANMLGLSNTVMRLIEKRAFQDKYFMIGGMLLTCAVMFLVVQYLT
UniProt O35473: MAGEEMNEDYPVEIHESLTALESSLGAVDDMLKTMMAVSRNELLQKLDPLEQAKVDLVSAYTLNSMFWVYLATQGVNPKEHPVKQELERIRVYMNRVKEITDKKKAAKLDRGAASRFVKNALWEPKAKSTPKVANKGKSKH
UniProt F7BJB9: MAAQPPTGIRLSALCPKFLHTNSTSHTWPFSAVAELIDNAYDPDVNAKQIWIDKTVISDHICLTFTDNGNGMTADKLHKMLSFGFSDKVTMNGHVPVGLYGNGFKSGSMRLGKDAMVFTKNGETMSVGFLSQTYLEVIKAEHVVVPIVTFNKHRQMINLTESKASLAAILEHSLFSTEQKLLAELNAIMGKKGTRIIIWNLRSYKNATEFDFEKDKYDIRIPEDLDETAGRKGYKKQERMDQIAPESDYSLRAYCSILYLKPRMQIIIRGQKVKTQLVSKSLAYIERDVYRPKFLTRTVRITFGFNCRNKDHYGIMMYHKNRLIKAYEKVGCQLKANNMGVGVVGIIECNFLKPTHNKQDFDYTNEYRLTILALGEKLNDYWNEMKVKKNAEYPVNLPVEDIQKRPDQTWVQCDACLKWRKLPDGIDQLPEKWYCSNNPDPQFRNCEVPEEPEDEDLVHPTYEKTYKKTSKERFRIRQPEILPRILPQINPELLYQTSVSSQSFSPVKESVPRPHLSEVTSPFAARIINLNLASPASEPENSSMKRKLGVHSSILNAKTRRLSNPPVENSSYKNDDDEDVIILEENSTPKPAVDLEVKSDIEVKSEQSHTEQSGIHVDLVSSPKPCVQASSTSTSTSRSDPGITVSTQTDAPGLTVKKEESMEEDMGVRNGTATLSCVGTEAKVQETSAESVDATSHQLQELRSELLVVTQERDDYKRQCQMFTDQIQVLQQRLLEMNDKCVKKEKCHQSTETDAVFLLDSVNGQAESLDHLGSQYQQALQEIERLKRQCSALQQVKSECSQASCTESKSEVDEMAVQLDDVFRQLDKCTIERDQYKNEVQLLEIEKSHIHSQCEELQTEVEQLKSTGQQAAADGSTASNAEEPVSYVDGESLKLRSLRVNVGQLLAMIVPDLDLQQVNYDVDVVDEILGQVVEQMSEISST
UniProt E9Q1U1: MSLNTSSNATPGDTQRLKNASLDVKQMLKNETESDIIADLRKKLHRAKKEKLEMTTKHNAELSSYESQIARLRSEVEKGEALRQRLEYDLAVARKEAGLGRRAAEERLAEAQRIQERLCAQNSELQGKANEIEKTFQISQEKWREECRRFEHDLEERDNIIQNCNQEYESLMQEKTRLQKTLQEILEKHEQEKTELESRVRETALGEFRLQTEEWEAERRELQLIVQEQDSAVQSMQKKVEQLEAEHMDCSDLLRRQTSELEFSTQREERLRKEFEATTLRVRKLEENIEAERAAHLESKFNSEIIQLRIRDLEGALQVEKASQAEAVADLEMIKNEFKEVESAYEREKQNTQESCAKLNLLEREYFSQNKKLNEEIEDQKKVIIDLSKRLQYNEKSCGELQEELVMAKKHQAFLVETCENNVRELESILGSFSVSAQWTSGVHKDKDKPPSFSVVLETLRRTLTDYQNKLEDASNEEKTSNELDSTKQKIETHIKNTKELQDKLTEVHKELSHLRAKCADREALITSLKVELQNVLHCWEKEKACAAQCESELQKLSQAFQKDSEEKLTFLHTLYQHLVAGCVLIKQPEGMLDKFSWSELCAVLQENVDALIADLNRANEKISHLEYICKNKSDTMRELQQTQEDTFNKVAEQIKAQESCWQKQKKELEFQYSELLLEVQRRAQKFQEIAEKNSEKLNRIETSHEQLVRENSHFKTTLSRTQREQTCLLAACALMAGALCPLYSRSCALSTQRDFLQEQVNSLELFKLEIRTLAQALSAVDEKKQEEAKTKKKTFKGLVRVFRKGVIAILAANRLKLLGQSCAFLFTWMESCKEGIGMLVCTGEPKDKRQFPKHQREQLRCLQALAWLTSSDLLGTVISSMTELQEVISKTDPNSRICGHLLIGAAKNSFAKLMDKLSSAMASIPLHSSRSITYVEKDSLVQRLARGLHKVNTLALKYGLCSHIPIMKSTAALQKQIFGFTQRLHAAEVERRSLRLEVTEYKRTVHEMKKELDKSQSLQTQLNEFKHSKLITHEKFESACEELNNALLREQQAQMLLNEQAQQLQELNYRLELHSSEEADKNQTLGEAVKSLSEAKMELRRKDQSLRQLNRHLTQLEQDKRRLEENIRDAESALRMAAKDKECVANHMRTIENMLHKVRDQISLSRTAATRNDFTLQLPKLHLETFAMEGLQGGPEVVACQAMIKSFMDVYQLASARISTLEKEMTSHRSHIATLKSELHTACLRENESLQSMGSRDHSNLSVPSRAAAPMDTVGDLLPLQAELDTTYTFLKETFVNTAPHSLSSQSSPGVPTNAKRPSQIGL
UniProt O35126: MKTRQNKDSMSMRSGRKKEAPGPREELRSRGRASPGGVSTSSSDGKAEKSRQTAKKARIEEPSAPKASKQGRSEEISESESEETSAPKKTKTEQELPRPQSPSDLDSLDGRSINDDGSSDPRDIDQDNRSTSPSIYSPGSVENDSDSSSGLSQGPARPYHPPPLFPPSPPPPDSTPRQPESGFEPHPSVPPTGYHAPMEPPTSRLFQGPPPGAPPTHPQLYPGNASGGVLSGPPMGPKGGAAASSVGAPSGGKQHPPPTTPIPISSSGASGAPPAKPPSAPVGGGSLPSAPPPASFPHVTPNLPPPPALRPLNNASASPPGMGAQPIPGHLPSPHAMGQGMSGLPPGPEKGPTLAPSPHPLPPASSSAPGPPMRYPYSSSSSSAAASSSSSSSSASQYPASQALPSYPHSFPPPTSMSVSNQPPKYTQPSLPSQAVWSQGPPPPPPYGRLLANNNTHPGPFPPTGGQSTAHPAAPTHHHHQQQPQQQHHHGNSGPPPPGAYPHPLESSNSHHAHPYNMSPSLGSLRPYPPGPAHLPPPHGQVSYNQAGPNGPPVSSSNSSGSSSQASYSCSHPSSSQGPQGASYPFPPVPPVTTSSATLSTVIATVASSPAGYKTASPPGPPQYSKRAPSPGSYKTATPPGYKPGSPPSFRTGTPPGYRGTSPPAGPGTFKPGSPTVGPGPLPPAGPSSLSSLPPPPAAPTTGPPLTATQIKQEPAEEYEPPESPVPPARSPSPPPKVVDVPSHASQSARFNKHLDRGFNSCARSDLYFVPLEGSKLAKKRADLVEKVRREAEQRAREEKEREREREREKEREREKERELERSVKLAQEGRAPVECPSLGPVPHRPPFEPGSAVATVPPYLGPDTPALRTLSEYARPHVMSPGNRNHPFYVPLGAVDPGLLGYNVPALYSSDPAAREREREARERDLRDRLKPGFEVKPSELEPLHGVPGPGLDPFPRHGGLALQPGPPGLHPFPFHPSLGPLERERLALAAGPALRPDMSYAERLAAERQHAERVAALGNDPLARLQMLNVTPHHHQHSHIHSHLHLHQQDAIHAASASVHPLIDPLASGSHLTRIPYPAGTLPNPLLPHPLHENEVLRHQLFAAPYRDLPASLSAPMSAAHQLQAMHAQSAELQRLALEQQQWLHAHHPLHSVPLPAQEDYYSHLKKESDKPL
UniProt G5E897: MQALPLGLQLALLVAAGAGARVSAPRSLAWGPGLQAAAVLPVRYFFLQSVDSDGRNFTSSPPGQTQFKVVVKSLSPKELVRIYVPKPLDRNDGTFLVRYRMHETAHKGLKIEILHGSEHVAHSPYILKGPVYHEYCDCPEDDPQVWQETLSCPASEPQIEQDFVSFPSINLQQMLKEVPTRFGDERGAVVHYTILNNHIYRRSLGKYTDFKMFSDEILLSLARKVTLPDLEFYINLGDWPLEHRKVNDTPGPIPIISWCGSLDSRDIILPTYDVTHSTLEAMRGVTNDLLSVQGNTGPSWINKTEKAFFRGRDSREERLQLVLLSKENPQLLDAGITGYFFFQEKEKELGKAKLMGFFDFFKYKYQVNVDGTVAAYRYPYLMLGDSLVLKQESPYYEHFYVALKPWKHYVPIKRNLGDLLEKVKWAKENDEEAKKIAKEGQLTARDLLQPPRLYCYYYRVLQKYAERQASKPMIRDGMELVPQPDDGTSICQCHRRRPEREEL

Compound: CN[C@@H]1C[C@H]2O[C@@](C)([C@@H]1OC)n1c3ccccc3c3c4c(c5c6ccccc6n2c5c31)C(=O)NC4 [staurosporine]
Assay: log2 fold change of tryptic peptide abundance, ligand vs vehicle (limited proteolysis) (log2 ratio); higher = more trypsin-susceptible (destabilized)
Settings: ligand concentration: 20 uM; sample: mouse liver crude lysate; replicate design: treated separately

Row | Target | log2 fold change
1 | UniProt O08585 (peptide sequence: WREEQTERLEALDANSR, peptide start residue: 112) | -0.186
2 | UniProt E9PV87 (peptide sequence: VHLFEDTSTEK, peptide start residue: 150) | -0.301
3 | UniProt E0CYV9 (peptide sequence: KMQREHEFK, peptide start residue: 809) | 0.179
4 | UniProt E9Q236 (peptide sequence: ERYEKVIK, peptide start residue: 502) | 0.0647
5 | UniProt O09044 (peptide sequence: AHQVTDESLESTRR, peptide start residue: 13) | -0.0584
6 | UniProt G3XA57 (peptide sequence: WFPTHVQVTVLQAK, peptide start residue: 10) | -0.221
7 | UniProt O35166 (peptide sequence: QRDELLSR, peptide start residue: 100) | 0.138
8 | UniProt O35473 (peptide sequence: LDPLEQAK, peptide start residue: 47) | -0.187
9 | UniProt O35130 (peptide sequence: FCGLMVQLLHK, peptide start residue: 133) | 0.652
10 | UniProt O35298 (peptide sequence: DGIPYEKK, peptide start residue: 239) | 0.145
11 | UniProt E9Q555 (peptide sequence: QAAVVMLDR, peptide start residue: 500) | 0.364
12 | UniProt F7BJB9 (peptide sequence: LGVHSSILNAK, peptide start residue: 548) | 0.7
13 | UniProt E9Q1U1 (peptide sequence: SELHTACLR, peptide start residue: 1238) | -0.297
14 | UniProt B2RXS4 (peptide sequence: VWHLVRPTDEVDEGKSK, peptide start residue: 1592) | -0.397
15 | UniProt B2RXV4 (peptide sequence: ARPDDEVGPAVAPGHPLGK, peptide start residue: 2) | 0.0379
16 | UniProt O08808 (peptide sequence: SPDELPATGGDGGKHK, peptide start residue: 22) | 0.373
17 | UniProt O35126 (peptide sequence: LALAAGPALRPDMSYAER, peptide start residue: 988) | 0.274
18 | UniProt B2RY71 (peptide sequence: EIREQEK, peptide start residue: 858) | -0.00642
19 | UniProt E9Q784 (peptide sequence: ASLLSDLGPCCK, peptide start residue: 1643) | 0.243
20 | UniProt O08736 (peptide sequence: AHVETDFIAFKSSTPHNISWK, peptide start residue: 336) | 0.382
21 | UniProt O08553 (peptide sequence: IVLEDGTLHVTEGSGR, peptide start residue: 452) | 0.136
22 | UniProt B7ZNG0 (peptide sequence: FHFVDLAGSER, peptide start residue: 270) | 0.0211
23 | UniProt O35400 (peptide sequence: KGISGDWK, peptide start residue: 258) | -0.0127
24 | UniProt G5E897 (peptide sequence: LQLVLLSK, peptide start residue: 319) | 0.158

Shown as labelled records: entries from further up.
UniProt E9Q555 (peptide sequence: QAAVVMLDR, peptide start residue: 500)
  log2 fold change: 0.364
UniProt F7BJB9 (peptide sequence: LGVHSSILNAK, peptide start residue: 548)
  log2 fold change: 0.7
